The other results are listed elsewhere or left out. Single values are uncertain, as repeats are few or missing.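 Cells were imaged in 1,536-well plates, and nuclei stained with an antibody against cleaved PARP were counted against all DNA-stained nuclei to give the apoptosis fraction. Screening doses were chosen to leave most cells alive, and resting and induced cleaved-PARP levels differ strongly between cell lines.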
Experiments:
Experiment in all cases: cleaved PARP positive nuclei fraction relative to DMSO control; melanoma cells; higher = more apoptosis
Settings in all cases: library dose: low library concentration; 72 h
[1] = test system: 501Mel
[2] = test system: A101D
[3] = test system: A2058
[4] = test system: A375
[5] = test system: C32
[6] = test system: CBRC008 (line from a melanoma biopsy)
[7] = test system: CBRC013 (line from a melanoma biopsy)
[8] = test system: CBRC014 (line from a melanoma biopsy)
[9] = test system: CBRC016 (line from a melanoma biopsy)
[10] = test system: CBRC017 (line from a melanoma biopsy)
[11] = test system: COLO792
[12] = test system: COLO800
[13] = test system: COLO829
[14] = test system: G361
[15] = test system: IPC-298
[16] = test system: IST-MEL1
[17] = test system: LB2518-MEL
[18] = test system: LOXIMVI
[19] = test system: MEL-HO

Row | SMILES | cleaved PARP positive nuclei fraction [1] | cleaved PARP positive nuclei fraction [2] | cleaved PARP positive nuclei fraction [3] | cleaved PARP positive nuclei fraction [4] | cleaved PARP positive nuclei fraction [5] | cleaved PARP positive nuclei fraction [6] | cleaved PARP positive nuclei fraction [7] | cleaved PARP positive nuclei fraction [8] | cleaved PARP positive nuclei fraction [9] | cleaved PARP positive nuclei fraction [10] | cleaved PARP positive nuclei fraction [11] | cleaved PARP positive nuclei fraction [12] | cleaved PARP positive nuclei fraction [13] | cleaved PARP positive nuclei fraction [14] | cleaved PARP positive nuclei fraction [15] | cleaved PARP positive nuclei fraction [16] | cleaved PARP positive nuclei fraction [17] | cleaved PARP positive nuclei fraction [18] | cleaved PARP positive nuclei fraction [19]
1 | Cn1c(=O)n(-c2ccc(C(C)(C)C#N)cc2)c2c3cc(-c4cnc5ccccc5c4)ccc3ncc21 + CC1(C)NC(=O)N(c2ccc([N+](=O)[O-])c(C(F)(F)F)c2)C1=O [nilutamide] (first compound 0.004 µM, partner dose 1 µM) | 79.4% | 340% | 96.2% | 88.7% | 127% | 79.1% | 90.3% | 96% | 48.4% | 95.8% | 106% | 89.6% | 76.8% | 158% | 49.2% | 170% | 134% | 55.4% | 84.8%
2 | CS(=O)(=O)CCNCc1ccc(-c2ccc3ncnc(Nc4ccc(OCc5cccc(F)c5)c(Cl)c4)c3c2)o1 [lapatinib] + Cn1cncc1[C@@](N)(c1ccc(Cl)cc1)c1ccc2c(c1)c(-c1cccc(Cl)c1)cc(=O)n2C [tipifarnib] (first compound 0.8 µM, partner dose 0.01 µM) | 83.6% | 94.4% | 163% | 75.3% | 86.9% | 122% | 79.9% | 185% | 59.5% | 109% | 183% | 123% | 149% | 122% | 173% | 80.8% | 98.3% | 72.3% | 143%
3 | C=C(c1ccc(C(=O)O)cc1)c1cc2c(cc1C)C(C)(C)CCC2(C)C [Bexarotene] + CN(NC(=O)CC(=O)NN(C)C(=S)c1ccccc1)C(=S)c1ccccc1 [STA4783] (first compound 2 µM, partner dose 0.006 µM) | 893% | 98.6% | 142% | 6110% | 245% | 1850% | 104% | 258% | 226% | 515% | 230% | 205% | 175% | 38% | 151% | 96.1% | 248% | 24.1% | 225%
4 | Nc1ncn([C@H]2C[C@H](O)[C@@H](CO)O2)c(=O)n1 [decitabine] + CC1(C)NC(=O)N(c2ccc([N+](=O)[O-])c(C(F)(F)F)c2)C1=O [nilutamide] (first compound 0.1 µM, partner dose 1 µM) | 81.8% | 46.6% | 111% | 22.2% | 94.2% | 63.9% | 112% | 88.5% | 161% | 55.9% | 136% | 126% | 240% | 111% | 106% | 110% | 99.5% | 40.3% | 74.4%
5 | CC(C)C[C@H](NC(=O)[C@H](Cc1ccccc1)NC(=O)c1cnccn1)B(O)O [Bortezomib] + CN(NC(=O)CC(=O)NN(C)C(=S)c1ccccc1)C(=S)c1ccccc1 [STA4783] (first compound 0.001 µM, partner dose 0.006 µM) | 286% | 978% | 105% | 2600% | 187% | 4450% | 111% | 669% | 358% | 336% | 47.3% | 293% | 279% | 2820% | 122% | 157% | 1640% | 214% | 148%
6 | O=C(O)c1ccc2c(c1)nc(Nc1cccc(Cl)c1)c1ccncc12 + COc1cc(Nc2ncc(F)c(Nc3ccc4c(n3)NC(=O)C(C)(C)O4)n2)cc(OC)c1OC [Tamatinib] (first compound 0.4 µM, partner dose 0.4 µM) | 91.8% | 20.3% | 106% | 173% | 175% | 122% | 107% | 111% | 86.4% | 113% | 302% | 300% | 80.6% | 154% | 115% | 163% | 219% | 205% | 84.5%
7 | Nc1ccn([C@@H]2O[C@H](CO)[C@@H](O)C2(F)F)c(=O)n1 [gemcitabine] + COc1cc2c(Oc3ccc4[nH]c(C)cc4c3F)ncnc2cc1OCCCN1CCCC1 [cediranib] (first compound 0.0004 µM, partner dose 0.4 µM) | 227% | 70.9% | 47.4% | 166% | 32.2% | 73.9% | 113% | 111% | 383% | 169% | 18.6% | 92.3% | 144% | 89.8% | 141% | 237% | 54.8% | 737% | 88.1%
8 | Nc1ncn([C@H]2C[C@H](O)[C@@H](CO)O2)c(=O)n1 [decitabine] + O=C(CCCCCCC(=O)Nc1ccccc1)NO [vorinostat] (first compound 0.1 µM, partner dose 0.08 µM) | 97.9% | 101% | 136% | 62% | 148% | 57.1% | 99.9% | 85.4% | 167% | 359% | 131% | 35.5% | 79.4% | 96.4% | 169% | 123% | 317% | 51.2% | 93.3%
9 | C[C@@H](Oc1cc(-c2cnn(C3CCNCC3)c2)cnc1N)c1c(Cl)ccc(F)c1Cl [Crizotinib] + C=CCn1c(=O)c2cnc(Nc3ccc(N4CCN(C)CC4)cc3)nc2n1-c1cccc(C(C)(C)O)n1 [MK1775] (first compound 0.2 µM, partner dose 0.02 µM) | 80.5% | 211% | 210% | 43.7% | 88.4% | 160% | 71.4% | 135% | 159% | 102% | 83.5% | 71.7% | 71.9% | 95.2% | 94.8% | 211% | 123% | 57% | 74.9%

From the supplement of paper PMC4604168 (melanoma cell lines)
